The values below come from article doi:10.1101/2023.10.17.562819.

The target in the assay is Ct226-FLAG (Chlamydia trachomatis). The assay is described as follows: co-IP.

No constants are given. Whether binding was seen depends on the method and setting. In cells and extracts the contact can be indirect. Binding calls can cover weak binding; strength is not graded here.

B1: leucine rich repeat Flightless-1 interacting protein 1 (protein, UniProt Q32MZ4 1-808)
chain: MTSPAAAQSREIDCLSPEAQKLAEARLAAKRAARAEAREIRMKELERQQKEEDSERYSRRSRRNTSASDEDERMSVGSRGSLRVEERPEKDFTEKGSRNMPGLSAATLASLGGTSSRRGSGDTSISIDTEASIREIKELNELKDQIQDVEGKYMQGLKEMKDSLAEVEEKYKKAMVSNAQLDNEKTNFMYQVDTLKDMLLELEEQLAESRRQYEEKNKEFEREKHAHSILQFQFAEVKEALKQREEMLEKHGIILNSEIATNGETSDTLNNVGYQGPTKMTKEELNALKSTGDGTLGRASEVEVKNEIVANVGKREILHNTEKEQHTEDTVKDCVDIEVFPAGENTEDQKSSEDTAPFLGTLAGATYEEQVQSQILESSSLPENTVQVESNEVMGAPDDRTRTPLEPSNCWSDLDGGNHTENVGEAAVTQVEEQAGTVASCPLGHSDDTVYHDDKCMVEVPQELETSTGHSLEKEFTNQEAAEPKEVPAHSTEVGRDHNEEEGEETGLRDEKPIKTEVPGSPAGTEGNCQEATGPSTVDTQNEPLDMKEPDEEKSDQQGEALDSSQKKTKNKKKKNKKKKSPVPVETLKDVKKELTYQNTDLSEIKEEEQVKSTDRKSAVEAQNEVTENPKQKIAAESSENVDCPENPKIKLDGKLDQEGDDVQTAAEEVLADGDTLDFEDDTVQSSGPRAGGEELDEGVAKDNAKIDGATQSSPAEPKSEDADRCTLPEHESPSQDISDACEAESTERCEMSEHPSQTVRKALDSNSLENDDLSAPGREPGHFNPESREDTRGGNEKGKSKEDCTMS
For B1, the binding result was “binds”.
